# Assay results

Data taken from PubChem BioAssay AID1159506, deposited by NCATS (2015).

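Genome-wide siRNA knockdown in TC32 Ewing sarcoma cells, comparing luciferase light from an NR0B1-promoter reporter with a CMV-promoter reporter 48 hours after transfection. Each siRNA was applied at 20 nM. A z-score of the log NR0B1-over-CMV signal, less the median of siRNAs with the same seed; more negative means a stronger specific loss of the NR0B1 reporter.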

This is part of the screen; most of the strongest results are not listed here. Sequences are the guide (antisense) strand, without overhang.

{"sequence": "UGCGUGAUCCCAUAUCAGC", "gene": "PAQR6", "seed-corrected z-score": "0.3189"}
{"sequence": "UUCGUUAAUAGAAGUAGGC", "gene": "NANP", "seed-corrected z-score": "1.348"}
{"sequence": "UUGGGUUUCGCAUCCUCCU", "gene": "ASIC4", "seed-corrected z-score": "0.2923"}
{"sequence": "UGCGAAUCCAGUCAAACGC", "gene": "MMP21", "seed-corrected z-score": "-0.3342"}
{"sequence": "UGACCAUUACCUAUUCUGC", "gene": "DEFB110", "seed-corrected z-score": "0.4564"}
{"sequence": "AAUGUCUGAAUUCCGAAGC", "gene": "NFATC4", "seed-corrected z-score": "-0.2538"}
{"sequence": "UAAGAUAUUCGUUAUGUUG", "gene": "TMEM106A", "seed-corrected z-score": "0.1608"}
{"sequence": "UCCACUCCCAAAGAAUUCC", "gene": "DNAJB2", "seed-corrected z-score": "-0.9099"}
{"sequence": "UAUUGAACCAUUCCUCCAC", "gene": "KRT32", "seed-corrected z-score": "1.032"}
{"sequence": "UUCAGGAUCUUCAUUCUCA", "gene": "VASH2", "seed-corrected z-score": "0.0731"}
{"sequence": "UUGCGGGCAAUAGUGAAGG", "gene": "ABCD1", "seed-corrected z-score": "-0.1425"}
{"sequence": "UUACCGGAAACCUUCGAUC", "gene": "CIART", "seed-corrected z-score": "-0.1054"}
{"sequence": "UUUCUUACAAAGAAGCUUU", "gene": "LOC728084", "seed-corrected z-score": "-0.4812"}
{"sequence": "UUUAUUUCUGGUACGGCUG", "gene": "CD7", "seed-corrected z-score": "1.519"}
{"sequence": "UAGGAUACCAGUAUCGCAC", "gene": "HECTD4", "seed-corrected z-score": "1.478"}
{"sequence": "UUCGGUAGUACAUUCGUGU", "gene": "SLC51A", "seed-corrected z-score": "0.2366"}
{"sequence": "UCAUUGACAGGCAAAAGGG", "gene": "PLA1A", "seed-corrected z-score": "-0.05279"}
{"sequence": "UCAAGUCCAUCAGCCCAGG", "gene": "CTXN3", "seed-corrected z-score": "0.2194"}
{"sequence": "AUACUGAUUCAGGCUAUCG", "gene": "CCBL2", "seed-corrected z-score": "0.1823"}
{"sequence": "UUCCGGAAUGGGUACGUUG", "gene": "PRKCA", "seed-corrected z-score": "-0.4536"}
{"sequence": "UAGGGAAUAGUUUCCAGCA", "gene": "RPL21P20", "seed-corrected z-score": "-0.2649"}
{"sequence": "AAACUUUAGGGCAAAAUUG", "gene": "GLIPR1", "seed-corrected z-score": "1.18"}
{"sequence": "UAUAGACCUAUGAUCACGA", "gene": "KIR2DS1", "seed-corrected z-score": "0.9549"}
{"sequence": "UUCAUGCGUAAAGAUUUCC", "gene": "ZDBF2", "seed-corrected z-score": "0.9942"}
{"sequence": "UUAGGCAUCAGGAUGAGUU", "gene": "PHC1", "seed-corrected z-score": "0.4267"}
{"sequence": "UGCAGAGAUAAAUCAGCCG", "gene": "BRICD5", "seed-corrected z-score": "-0.3647"}
{"sequence": "UCUCGUAGUACAUUUAACC", "gene": "WDR89", "seed-corrected z-score": "0.009961"}
{"sequence": "UAGCUGUCGCUGACCAUCC", "gene": "ST6GALNAC4", "seed-corrected z-score": "0.7944"}
{"sequence": "UCAAAUAGCUGUAAUAUCC", "gene": "USP10", "seed-corrected z-score": "-0.06367"}
{"sequence": "UGUUAUCCUGGACUAAUCC", "gene": "DDX60", "seed-corrected z-score": "0.1275"}
{"sequence": "UAAUCAGCUCUGACAUUGC", "gene": "METTL25", "seed-corrected z-score": "1.381"}
{"sequence": "AGAGCUUCCAGUUAAAGCG", "gene": "ABCB8", "seed-corrected z-score": "-0.9073"}

The last 4 entries again:

Sequence	gene	seed-corrected z-score
UCAAAUAGCUGUAAUAUCC	USP10	-0.06367
UGUUAUCCUGGACUAAUCC	DDX60	0.1275
UAAUCAGCUCUGACAUUGC	METTL25	1.381
AGAGCUUCCAGUUAAAGCG	ABCB8	-0.9073